Key:
[1] = tested on: pde2Δ/pde2Δ strain; test: Growth of individually cultured yeast strain with inhibitor (O.D.600); assay type: cell-based, Saccharomyces cerevisiae; conditions: pde2Δ/pde2Δ grown individually, YPD, 30° C.; staurosporine 1 μM, latrunculin B 2 μg/ml
Excerpt: (§1) Strains, media and inhibitors.

[2] = tested on: rlm1Δ/rlm1Δ strain; test: as above; assay type: cell-based, Saccharomyces cerevisiae; conditions: rlm1Δ/rlm1Δ grown individually, YPD, 30° C.; staurosporine 1 μM, caffeine 8 mM, tunicamycin 0.4 μg/ml
Excerpt: as §1

[3] = tested on: ACT1/act1Δ strain; assay type: cell-based, Saccharomyces cerevisiae; conditions: ACT1/act1Δ grown individually, YPD, 30° C.; staurosporine 1 μM, latrunculin B 2 μg/ml
Excerpt: as §1

[4] = tested on: alg7Δ/ALG7 strain; assay type: cell-based, Saccharomyces cerevisiae
Excerpt: as §1

[5] = tested on: gim4Δ/gim4Δ strain; assay type: cell-based, Saccharomyces cerevisiae; conditions: gim4Δ/gim4Δ grown individually, YPD, 30° C.; staurosporine 1 μM, latrunculin B 2 μg/ml
Excerpt: as §1

[6] = tested on: pac10Δ/pac10Δ strain; assay type: cell-based, Saccharomyces cerevisiae; conditions: pac10Δ/pac10Δ grown individually, YPD, 30° C.; staurosporine 1 μM, caffeine 8 mM, latrunculin B 2 μg/ml
Excerpt: as §1

[7] = tested on: pdr5Δ/pdr5Δ strain; assay type: cell-based, Saccharomyces cerevisiae; conditions: pdr5Δ/pdr5Δ grown individually, YPD, 30° C.; staurosporine 1 μM, latrunculin B 2 μg/ml
Excerpt: as §1

[8] = tested on: act1Δ/ACT1 strain; test: Differential Tag Length Analysis (DTLA) of 11-strain mixed yeast culture with inhibitor; assay type: cell-based, Saccharomyces cerevisiae; conditions: act1Δ/ACT1 in mixed culture, 20 hours; staurosporine 1 μM
Protocol: as §1
(§2) Tag amplification and capillary electrophoresis. Oligonucleotides Fluor-1 (6-Fam-[…]) and Pho-1 (Phosphate-[…]) were used for the amplification of tag DNAs. PCR reactions were performed in 50 μl reaction volume containing the 2 primers at a final concentration of 1 μM each and 2.5 units of Stoffel fragment AmpliTaq DNA polymerase (Applied Biosystems, Foster City, Calif.). After an initial 2 min denaturing step at 94° C., the reactions underwent 30 amplification cycles (94° C., 30 sec; 60° C., 30 sec; 72° C., 30 sec with a 6 sec increase in extension time per cycle) followed by a post-amplification extension step (72° C., 10 min). As a template for the PCR reactions, 100 ng of plasmid DNA, 700 ng of genomic DNA (extracted from yeast strains using MasterPure Yeast DNA purification kit; Epicentre, Madison, Wis.), or an equivalent to 0.5 μl of saturated culture of yeast protoplasts (prepared by using lyticase) (see, e.g., Chen et al., Biotechniques 19:744-746 (1995)) was used. The PCR products were incubated with λ-exonuclease for 1 h at 37° C. and then purified using MinElute PCR purification kit (QIAGEN Inc., Valencia, Calif.). After 1 h digestion with EcoRI, the PCR products were again purified with the same kit and adjusted to 70% formamide and 1 mM EDTA and analyzed by capillary electrophoresis on ABI Prism 3700 DNA analyzer (Applied Biosystems, Foster City, Calif.) using 3700 POP-5 polymer.
(§3) Data analysis. To access the raw fluorescence data collected by ABI Prism 3700 DNA analyzer, a Visual Basic program was used that extracted the electropherogram values and converted them into a text file format. Peak quantitation was then performed using Caesar Workstation 5.0 (SciBridge Software, Los Angeles, Calif.). In the majority of cases, the relative representation of each tag in the PCR product was calculated by dividing the area under the corresponding tag peak by the sum of all tag peak areas. For the measurement of different input amounts of tag 42, the average peak area of the other 10 tags was first calculated. The area value of tag 42 was then divided by this averaged value to give normalized tag 42 area.

[9] = tested on: gim4Δ/gim4Δ strain; test: as above; assay type: cell-based, Saccharomyces cerevisiae; conditions: gim4Δ/gim4Δ in mixed culture, 20 hours; staurosporine 1 μM
Protocol: as §1, §2, §3

[10] = tested on: pdr5Δ/pdr5Δ strain; test: as above; assay type: cell-based, Saccharomyces cerevisiae; conditions: pdr5Δ/pdr5Δ in mixed culture, 20 hours; staurosporine 1 μM
Protocol: as §1, §2, §3

[11] = tested on: pkc1Δ/PKC1 strain; test: as above; assay type: cell-based, Saccharomyces cerevisiae; conditions: pkc1Δ/PKC1 in mixed culture, 20 hours; staurosporine 1 μM
Protocol: as §1, §2, §3

[12] = tested on: rlm1Δ/rlm1Δ strain; test: as above; assay type: cell-based, Saccharomyces cerevisiae; conditions: rlm1Δ/rlm1Δ in mixed culture, 20 hours; staurosporine 1 μM, tunicamycin 0.4 μg/ml
Protocol: as §1, §2, §3

[13] = tested on: pac10Δ/pac10Δ strain; assay type: cell-based, Saccharomyces cerevisiae; conditions: pac10Δ/pac10Δ in mixed culture, 20 hours; staurosporine 1 μM
[14] = tested on: wild-type strain; conditions: wild-type grown individually, YPD, 30° C.; staurosporine 1 μM
[15] = tested on: arp2Δ/ARP2 strain
[16] = tested on: PKC1/pkc1Δ strain
[17] = tested on: bro1Δ/bro1Δ strain; conditions: bro1Δ/bro1Δ grown individually, YPD, 30° C.; staurosporine 1 μM, caffeine 8 mM

## CN[C@@H]1C[C@H]2O[C@@](C)([C@@H]1OC)n1c3ccccc3c3c4c(c5c6ccccc6n2c5c31)C(=O)NC4 [staurosporine]
[1]
  sensitivity of growth to inhibitor: insensitive
[2]
  sensitivity of growth to inhibitor: insensitive
[3]
  sensitivity of growth to inhibitor: sensitive
[4]
  sensitivity of growth to inhibitor: insensitive
[5]
  sensitivity of growth to inhibitor: insensitive
[6]
  sensitivity of growth to inhibitor: sensitive
[7]
  sensitivity of growth to inhibitor: sensitive
[8]
  depletion of strain relative to the non-treated culture: 53%
[9]
  decrease of strain relative to the non-treated culture: 44%
[10]
  depletion of strain relative to the non-treated culture: 75%
[11]
  depletion of strain relative to the non-treated culture: 61%
[12]
  decrease/reduction of strain relative to the non-treated culture: 60%
[13]
  depletion of strain relative to the non-treated culture: 60%
[14]
  sensitivity of growth to inhibitor: insensitive
[15]
  sensitivity of growth to inhibitor: insensitive
[16]
  sensitivity of growth to inhibitor: sensitive
[17]
  sensitivity of growth to inhibitor: insensitive
